Measurements published in the supplement of paper PMC4604168 (melanoma cell lines).
This is one part of the list. Single values are uncertain, as repeats are few or missing.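 The apoptosis fraction was the count of cleaved-PARP antibody-stained nuclei relative to all DNA-stained nuclei, imaged in 1,536-well plates. Screening doses were set so most cells survived, and baseline and induced cleaved-PARP levels vary greatly across cell lines.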

Assays:
Test in all cases: cleaved PARP positive nuclei fraction relative to DMSO control; melanoma cells; higher = more apoptosis
Conditions in all cases: library dose: low library concentration; 72 h
CBRC034 = system: CBRC034 (line from a melanoma biopsy)
COLO792 = system: COLO792
COLO800 = system: COLO800
COLO829 = system: COLO829
G361 = system: G361
IPC-298 = system: IPC-298
IST-MEL1 = system: IST-MEL1
LB2518-MEL = system: LB2518-MEL
LOXIMVI = system: LOXIMVI

SMILES	cleaved PARP positive nuclei fraction (CBRC034) [%]	cleaved PARP positive nuclei fraction (COLO792) [%]	cleaved PARP positive nuclei fraction (COLO800) [%]	cleaved PARP positive nuclei fraction (COLO829) [%]	cleaved PARP positive nuclei fraction (G361) [%]	cleaved PARP positive nuclei fraction (IPC-298) [%]	cleaved PARP positive nuclei fraction (IST-MEL1) [%]	cleaved PARP positive nuclei fraction (LB2518-MEL) [%]	cleaved PARP positive nuclei fraction (LOXIMVI) [%]
O=C(Nc1ccccc1)c1cc([N+](=O)[O-])ccc1Cl + O=c1cc(-c2cccc3c2Sc2ccccc2S3)oc(N2CCOCC2)c1 [KU55933] (first compound 2 µM, partner dose 1 µM)	144	130	156	85.6	82.5	124	87.7	73.1	41.6
CN(NC(=O)CC(=O)NN(C)C(=S)c1ccccc1)C(=S)c1ccccc1 + COc1ccc2c(c1)CCC1C2CCC2(C)C(NCCCCCCN3C(=O)C=CC3=O)CCC12 [U73122] (first compound 0.006 µM, partner dose 0.4 µM)	60.5	144	171	188	81.9	76.7	133	80.8	47.4
Oc1cc(-c2nc(-c3ccccc3)[nH]c2-c2ccncc2)ccc1Cl + COc1cc(N2CCC(N3CCN(C)CC3)CC2)ccc1Nc1ncc(Cl)c(Nc2ccccc2S(=O)(=O)C(C)C)n1 [NVP-TAE684] (first compound 0.2 µM, partner dose 0.08 µM)	48	43.7	110	113	31	92.4	33.8	273	155
O=C(O)c1ccc(-c2c[nH]c3ncc(-c4ccccc4)cc23)cc1C1CCCC1 + CC(C)CCN1c2nc(Nc3cc(F)c(O)c(F)c3)ncc2N(C)C(=O)C1C [BID1870] (first compound 0.16 µM, partner dose 0.2 µM)	72.1	135	112	99.6	103	42	151	81.6	60.6
O=C(O)c1ccc(-c2c[nH]c3ncc(-c4ccccc4)cc23)cc1C1CCCC1 + Oc1nc(-c2ccc(C(F)(F)F)cc2)nc2c1CSCC2 [XAV939] (first compound 0.16 µM, partner dose 2 µM)	27.1	87.2	149	79	66.4	58.4	226	61.6	41.6
COc1ccc2c(c1)CCC1C2CCC2(C)C(NCCCCCCN3C(=O)C=CC3=O)CCC12 (stereo not drawn) + O=C(O)C(=O)Nc1sc2c(c1C(=O)O)CCNC2 [TCS401] (first compound 0.4 µM, partner dose 1.66667 µM)	275	43.4	69.6	130	104	42.6	91.4	87	29.6
CCN(CC)CCCCNc1ncc2cc(-c3cc(OC)cc(OC)c3)c(NC(=O)NC(C)(C)C)nc2n1 + COc1ccc(COc2ccc(Cc3cnc(N)nc3N)cc2OC)cc1 [GW2580] (first compound 0.1 µM, partner dose 1 µM)	86.2	82.4	73.1	97	112	112	89.2	100	33.3
CCc1ccc(CCOc2ccc(CC3SC(=O)NC3=O)cc2)nc1 (stereo not drawn) [pioglitazone] + Oc1cc(-c2nc(-c3ccccc3)[nH]c2-c2ccncc2)ccc1Cl [L779450] (first compound 2 µM, partner dose 0.2 µM)	47.8	66.4	152	77.9	129	55	43.2	108	102
O=C(O)c1ccc(-c2c[nH]c3ncc(-c4ccccc4)cc23)cc1C1CCCC1 + COc1ccc(COc2ccc(Cc3cnc(N)nc3N)cc2OC)cc1 [GW2580] (first compound 0.16 µM, partner dose 1 µM)	53.5	79.9	29.5	179	156	87.1	191	84.3	27.1
CCN(CC)CCCCNc1ncc2cc(-c3cc(OC)cc(OC)c3)c(NC(=O)NC(C)(C)C)nc2n1 + O=S(=O)(c1ccccc1)N(CC(F)(F)F)c1ccc(C(O)(C(F)(F)F)C(F)(F)F)cc1 [T0901317] (first compound 0.1 µM, partner dose 1.4 µM)	40.4	94	103	161	62.6	33.2	84.7	72.4	36.7
COc1cc2c(Oc3ccc4[nH]c(C)cc4c3F)ncnc2cc1OCCCN1CCCC1 [cediranib] + CC(C)CCN1c2nc(Nc3cc(F)c(O)c(F)c3)ncc2N(C)C(=O)C1C [BID1870] (first compound 0.4 µM, partner dose 0.2 µM)	124	65.6	106	105	115	77.2	108	44.4	77.2
O=C(O)c1ccc(-c2c[nH]c3ncc(-c4ccccc4)cc23)cc1C1CCCC1 + O=C(O)C(=O)Nc1sc2c(c1C(=O)O)CCNC2 [TCS401] (first compound 0.16 µM, partner dose 1.66667 µM)	103	90.5	71.3	153	175	158	42.4	73.9	51
O=C(O)C(=O)Nc1sc2c(c1C(=O)O)CCNC2 + Cn1cc(/C=C2\C(=O)Nc3cccnc32)c2ccccc21 [GW441756] (first compound 1.66667 µM, partner dose 0.4 µM)	94.8	88.4	62.2	39.3	130	84.8	133	112	27
COc1ccc(-c2ccc3c(N4CCOCC4)nc(N4C[C@@H](C)O[C@@H](C)C4)nc3n2)cc1CO + O=S(=O)(c1ccccc1)N(CC(F)(F)F)c1ccc(C(O)(C(F)(F)F)C(F)(F)F)cc1 [T0901317] (first compound 0.02 µM, partner dose 1.4 µM)	46.9	87.4	89.1	124	49.5	92.7	121	72.8	48.3
Oc1cc(-c2nc(-c3ccccc3)[nH]c2-c2ccncc2)ccc1Cl + CC(C)CCN1c2nc(Nc3cc(F)c(O)c(F)c3)ncc2N(C)C(=O)C1C [BID1870] (first compound 0.2 µM, partner dose 0.2 µM)	90.5	94.6	102	90.9	112	31.2	126	64.7	57.2
O=C(O)c1ccc(-c2c[nH]c3ncc(-c4ccccc4)cc23)cc1C1CCCC1 + COc1ccc(-c2ccc3c(N4CCOCC4)nc(N4C[C@@H](C)O[C@@H](C)C4)nc3n2)cc1CO [KU0063794] (first compound 0.16 µM, partner dose 0.02 µM)	48.4	81.7	836	130	90.2	43.9	97.5	84.1	42.9
COc1ccc(COc2ccc(Cc3cnc(N)nc3N)cc2OC)cc1 + O=C1NC(=O)/C(=C/c2ccc(-c3ccc(F)cc3O)o2)S1 [AS252424] (first compound 1 µM, partner dose 1 µM)	109	93.7	104	219	157	83.6	121	101	67.9
NCC(=O)Nc1ccc(-n2nc(C(F)(F)F)cc2-c2ccc3c(ccc4ccccc43)c2)cc1 + O=C1NC(=O)/C(=C/c2ccc(-c3ccc(F)cc3O)o2)S1 [AS252424] (first compound 1 µM, partner dose 1 µM)	240	138	124	135	141	54.5	115	185	38.9
COc1ccc(-c2ccc3c(N4CCOCC4)nc(N4C[C@@H](C)O[C@@H](C)C4)nc3n2)cc1CO + Oc1nc(-c2ccc(C(F)(F)F)cc2)nc2c1CSCC2 [XAV939] (first compound 0.02 µM, partner dose 2 µM)	50.6	170	116	44.7	132	73.7	131	62.6	40
CCc1ccc(CCOc2ccc(CC3SC(=O)NC3=O)cc2)nc1 (stereo not drawn) [pioglitazone] + COc1cc(N2CCC(N3CCN(C)CC3)CC2)ccc1Nc1ncc(Cl)c(Nc2ccccc2S(=O)(=O)C(C)C)n1 [NVP-TAE684] (first compound 2 µM, partner dose 0.08 µM)	84.6	79.5	101	131	131	17.8	71.5	67	77.2
CN(C)S(=O)(=O)c1ccc2c(c1)/C(=C/c1cc3c([nH]1)CCCC3)C(=O)N2 + COc1ccc(-c2ccc3c(N4CCOCC4)nc(N4C[C@@H](C)O[C@@H](C)C4)nc3n2)cc1CO [KU0063794] (first compound 0.4 µM, partner dose 0.02 µM)	91.4	72.4	109	96.3	230	78.5	91.4	90.2	54.2
COc1cc2c(Oc3ccc4[nH]c(C)cc4c3F)ncnc2cc1OCCCN1CCCC1 [cediranib] + COc1ccc(-c2ccc3c(N4CCOCC4)nc(N4C[C@@H](C)O[C@@H](C)C4)nc3n2)cc1CO [KU0063794] (first compound 0.4 µM, partner dose 0.02 µM)	77.2	171	109	65.4	65.4	42.4	170	139	36.1

Looked up one by one from the list above (two):
SMILES	cleaved PARP positive nuclei fraction (CBRC034) [%]	cleaved PARP positive nuclei fraction (COLO792) [%]	cleaved PARP positive nuclei fraction (COLO800) [%]	cleaved PARP positive nuclei fraction (COLO829) [%]	cleaved PARP positive nuclei fraction (G361) [%]	cleaved PARP positive nuclei fraction (IPC-298) [%]	cleaved PARP positive nuclei fraction (IST-MEL1) [%]	cleaved PARP positive nuclei fraction (LB2518-MEL) [%]	cleaved PARP positive nuclei fraction (LOXIMVI) [%]
COc1cc2c(Oc3ccc4[nH]c(C)cc4c3F)ncnc2cc1OCCCN1CCCC1 [cediranib] + CC(C)CCN1c2nc(Nc3cc(F)c(O)c(F)c3)ncc2N(C)C(=O)C1C [BID1870] (first compound 0.4 µM, partner dose 0.2 µM)	124	65.6	106	105	115	77.2	108	44.4	77.2
Oc1cc(-c2nc(-c3ccccc3)[nH]c2-c2ccncc2)ccc1Cl + COc1cc(N2CCC(N3CCN(C)CC3)CC2)ccc1Nc1ncc(Cl)c(Nc2ccccc2S(=O)(=O)C(C)C)n1 [NVP-TAE684] (first compound 0.2 µM, partner dose 0.08 µM)	48	43.7	110	113	31	92.4	33.8	273	155
